Measurements from patent US9169247B2, “Tetrahydro-beta-carboline derivatives, synthesis and use thereof” (Southern Research Institute, priority 2009, dated 2015).
“Also recorded” adds a separate entry of the source. For at least one compound, name, drawing or mass did not settle the structure.

Experiments:
[1] = test system: human MDA-MB-231 breast tumor cells; assay: Growth assay (Cell Titer Glo); format: cell-based; settings: cell line not stated; sentence concerns MDA-MB-231
Procedure: All human tumor cell lines were obtained from ATCC and grown under standard cell culture conditions at 37° C. in a humidified atmosphere with 5% CO2. Cells were grown in RPMI 1640 supplemented with 5% fetal bovine serum 2 mM glutamine, 100 units/ml penicillin, 100 units/ml streptomycin, and 0.25 μg/ml amphotericin. Cells were harvested at 70 to 90% confluence with trypsin/EDTA and used immediately Cell count and viability was determined by Trypan blue staining followed by hemocytometry. Only cultures displaying >95% cell viability were used for experiments. HMEC were grown according to the specifications from the supplier (Lonzo).
Tissue culture microtiter 96-well plates were seeded with cells at a density of 5,000 cells/well. The plates were incubated for 18-24 hours prior to any treatment. All test compounds were solubilized in 100% DMSO and diluted with media to obtain a final DMSO concentration of 0.1%. Cell viability was measured 72 hours after treatment by the Cell Titer Glo Assay (Promega), which is a luminescent assay that is an indicator of live cells as a function of metabolic activity and ATP content. […] Luminescence was measured by a Perkin Elmer Victor® multi-label plate reader.^6
Dose response curves were analyzed using Prism™ 4 software (GraphPad) to calculate IC50 values using a four parameter logistic equation.

[2] = test system: human MDA-MB-231 breast tumor cells; assay: cGMP assay (intracellular cGMP, immunoassay); format: cell-based; settings: treated for 30 minutes, FIG. 1
Procedure: The + indicates the effects of a positive control, sulindac sulfide tested at 100 μM. The cells were treated for 30 minutes prior to measuring intracellular cGMP levels by immunoassay. The * indicates statistical significance with p<0.05.
Cells were seeded at a density of 1×10^6 cells per 10 cm tissue culture dish, incubated for 48 hours, and treated with the specified compound or vehicle control. After 30 minutes of treatment, cells were lysed and assayed for cGMP content using the cGMP Direct Biotrak EIA kit (GE Biosciences). The assay was performed according to the manufacturer's specifications. Optical density was measured at 630 nm using a Synergy4 (BioTek) plate reader.

## CN1CC(=O)N2[C@H](c3ccc4c(c3)OCO4)c3[nH]c4ccccc4c3C[C@@H]2C1=O [tadalafil, reference compound]
[1]
  tumor cell growth inhibition (in words): does not inhibit tumor cell growth
[2]
  intracellular cGMP levels: inability; also recorded: ineffective
